Measurements reported in PubChem BioAssay AID493246 (Drosophila RNAi Screening Center, 2011)
The screen tested about 21,000 reagents; shown is an unselected part of those with a known target gene and a result. In the full data, 429 (2%) were called active. 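Values are raw and not normalised between plates; calls rest on per-plate z-scores that were not deposited.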 Entries without a mark were called inactive. Names joined by + are all predicted targets of the reagent. Not given: the amount of reagent, the time to read-out.

Screen: 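Genes fly cells need to grow and stay alive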 (primary screen)
System: Drosophila Kc and S2R+ cells
Reagent: long dsRNA against Drosophila genes
Measured: 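Raw, unnormalised count of remaining cells in each well; per-plate z-scores of cell number underlie the calls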
Reading the numbers: Kc cell number and S2R+ cell number: higher = more cells remaining
Call rule: 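Active when the per-plate z-score of cell number is 3 or more in the direction of fewer cells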

gene knocked down | dsRNA | Kc cell number, rep 1 | Kc cell number, rep 2 | S2R+ cell number, rep 1 | S2R+ cell number, rep 2
fd59A | DRSC04685 | 1.32e6 | 1.35e6 | 1.08e6 | 1.18e6
CG12929 | DRSC06242 | 1.85e6 | 2.03e6 | 1.37e6 | 1.49e6
Hecw | DRSC18261 | 1.54e6 | 1.56e6 | 1.03e6 | 1.23e6
Hecw | DRSC18276 | 1.54e6 | 1.50e6 | 1.05e6 | 1.18e6
CG42586 + CG31775 | DRSC01413 | 1.52e6 | 1.62e6 | 9.03e5 | 1.07e6
CG8312 | DRSC16406 | 1.59e6 | 1.65e6 | 1.23e6 | 1.36e6
aph-1 | DRSC00547 | 1.12e6 | 1.31e6 | 9.97e5 | 9.92e5
CG15044 | DRSC19620 | 1.69e6 | 1.73e6 | 1.20e6 | 1.33e6
Lfg | DRSC06853 | 1.71e6 | 1.79e6 | 1.41e6 | 1.63e6
CG15673 | DRSC04263 | 1.57e6 | 1.64e6 | 1.23e6 | 3.05e5
CG9801 | DRSC16568 | 1.53e6 | 1.65e6 | 1.20e6 | 1.30e6
mip40 | DRSC06541 | 1.45e6 | 1.50e6 | 1.12e6 | 1.13e6
Dys + snoRNA:Me18S-A1374 | DRSC16232 | 1.35e6 | 1.31e6 | 1.03e6 | 1.17e6
CG14327 | DRSC14806 | 1.50e6 | 1.30e6 | 1.05e6 | 1.13e6
Mettl2 | DRSC08398 | 1.38e6 | 1.41e6 | 1.12e6 | 1.22e6
MBD-like | DRSC16996 | 1.55e6 | 1.52e6 | 1.18e6 | 1.29e6
CG3734 | DRSC15509 | 1.33e6 | 1.34e6 | 1.07e6 | 1.16e6
alpha-Est10 | DRSC12613 | 1.51e6 | 1.67e6 | 1.16e6 | 1.23e6
spin | DRSC07176 | 1.46e6 | 1.47e6 | 1.04e6 | 1.12e6
CG2116 | DRSC18206 | 5.67e5 | – | 9.18e5 | –
Sfmbt | DRSC02552 | 1.35e6 | 1.38e6 | 1.25e6 | 1.35e6
tna | DRSC09053 | 1.40e6 | 1.54e6 | 1.13e6 | 1.29e6
tna | DRSC10937 | 1.64e6 | 1.66e6 | 1.21e6 | 1.38e6
beta4GalNAcTB | DRSC14869 | 1.46e6 | 1.47e6 | 1.08e6 | 1.23e6
CG5447 | DRSC15801 | 1.90e6 | 2.13e6 | 1.07e6 | 1.16e6
CSN1b | DRSC11108 | 1.37e6 | 1.42e6 | 9.43e5 | 1.03e6
CG13385 | DRSC02259 | 1.67e6 | 1.69e6 | 1.24e6 | 1.45e6
Amacr | DRSC03198 | 1.13e6 | 1.34e6 | 1.03e6 | 1.00e6
Tango5 | DRSC18023 | 5.93e5 | – | 9.24e5 | –
S6KL | DRSC19349 | 1.66e6 | 1.68e6 | 1.15e6 | 1.25e6
Rab39 | DRSC17827 | 1.52e6 | 1.46e6 | 1.08e6 | 1.05e6
Ir25a | DRSC00462 | 1.44e6 | 1.41e6 | 1.18e6 | 1.28e6
babo | DRSC07581 | 1.52e6 | 1.53e6 | 1.27e6 | 1.34e6
CG6225 | DRSC15996 | 1.64e6 | 1.70e6 | 1.28e6 | 1.38e6
CG5676 | DRSC02875 | 1.52e6 | 1.57e6 | 1.23e6 | 1.32e6
CG1273 | DRSC08291 | 1.45e6 | 1.56e6 | 1.08e6 | 1.17e6
dgt4 | DRSC18659 | 1.57e6 | 1.47e6 | 1.00e6 | 1.13e6
Tnpo-SR | DRSC00546 | 1.30e6 | 1.40e6 | 5.52e5 | 6.51e5
crn | DRSC18184 | 9.00e5 (active) | 1.07e6 | 8.16e5 | 9.34e5
crn | DRSC18185 | 1.09e6 | 1.25e6 | 8.57e5 | 9.39e5
crn | DRSC18755 | 3.66e5 | – | 6.03e5 | –

A few values from above.
Result of tna [DRSC09053] under “Kc cell number, rep 2”: 1.54e6
CG6225 [DRSC15996], S2R+ cell number, rep 1 → 1.28e6
Result for MBD-like [DRSC16996] in “S2R+ cell number, rep 1”: 1.18e6
For “S2R+ cell number, rep 1”, aph-1 [DRSC00547] reads 9.97e5
